Results are given in words; binding and its absence hold for the method and conditions named. For some assays here: In cells and extracts the contact can be indirect. Some entries that bind do so weakly or less than the wild type.

Chains of the proteins cited; added tags and fusions are not shown. Lines headed by an entry give the natural chain unless they say otherwise; changes in a name come on top. A line that says so, or that is headed by a name, gives the form on record, which may keep a tag or linker.
Stat3-3M+C687A (P40763, form named): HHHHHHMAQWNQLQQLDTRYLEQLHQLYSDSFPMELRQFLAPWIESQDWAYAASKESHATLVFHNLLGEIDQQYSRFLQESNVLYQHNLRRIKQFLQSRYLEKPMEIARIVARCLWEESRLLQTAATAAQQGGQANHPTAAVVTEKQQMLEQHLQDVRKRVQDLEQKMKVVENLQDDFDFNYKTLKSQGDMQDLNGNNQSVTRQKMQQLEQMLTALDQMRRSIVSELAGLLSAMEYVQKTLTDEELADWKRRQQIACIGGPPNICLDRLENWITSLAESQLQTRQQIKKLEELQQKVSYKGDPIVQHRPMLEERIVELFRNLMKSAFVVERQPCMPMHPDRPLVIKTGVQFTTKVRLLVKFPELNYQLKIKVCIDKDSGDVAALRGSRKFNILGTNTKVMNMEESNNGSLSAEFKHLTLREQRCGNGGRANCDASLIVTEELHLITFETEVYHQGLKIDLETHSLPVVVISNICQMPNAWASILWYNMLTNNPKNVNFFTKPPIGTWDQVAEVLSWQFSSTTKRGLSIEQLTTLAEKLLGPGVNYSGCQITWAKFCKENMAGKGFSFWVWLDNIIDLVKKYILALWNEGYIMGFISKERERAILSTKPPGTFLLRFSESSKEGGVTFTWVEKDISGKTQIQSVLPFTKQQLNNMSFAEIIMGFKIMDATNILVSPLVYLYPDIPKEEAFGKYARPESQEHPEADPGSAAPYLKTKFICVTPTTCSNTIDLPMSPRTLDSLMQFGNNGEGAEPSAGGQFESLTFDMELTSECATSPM
Stat3-3M+K591L (P40763, form named): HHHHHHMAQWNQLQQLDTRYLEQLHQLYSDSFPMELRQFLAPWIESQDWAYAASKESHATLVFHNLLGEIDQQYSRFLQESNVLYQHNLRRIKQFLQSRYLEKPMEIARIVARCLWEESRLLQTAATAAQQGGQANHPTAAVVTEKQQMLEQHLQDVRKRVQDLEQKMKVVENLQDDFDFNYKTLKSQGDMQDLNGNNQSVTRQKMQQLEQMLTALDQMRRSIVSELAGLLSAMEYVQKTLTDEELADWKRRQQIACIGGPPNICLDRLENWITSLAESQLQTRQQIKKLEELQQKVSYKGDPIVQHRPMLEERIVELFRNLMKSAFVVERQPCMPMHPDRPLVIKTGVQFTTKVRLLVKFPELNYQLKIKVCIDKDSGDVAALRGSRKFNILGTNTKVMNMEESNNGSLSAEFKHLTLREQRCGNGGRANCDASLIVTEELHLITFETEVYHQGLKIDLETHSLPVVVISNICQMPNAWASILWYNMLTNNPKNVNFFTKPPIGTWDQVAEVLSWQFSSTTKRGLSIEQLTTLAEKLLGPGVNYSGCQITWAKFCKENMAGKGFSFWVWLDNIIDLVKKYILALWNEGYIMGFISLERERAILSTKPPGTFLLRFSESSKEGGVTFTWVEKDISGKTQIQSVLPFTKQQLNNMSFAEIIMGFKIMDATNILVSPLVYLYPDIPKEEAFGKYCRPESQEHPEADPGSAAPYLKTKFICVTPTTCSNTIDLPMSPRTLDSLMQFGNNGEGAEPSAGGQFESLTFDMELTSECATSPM

Here are results for 2 substances from US20060148715A1, “Structural requirements for STAT3 binding and recruitment to phosphotyrosine ligands” (BAYLOR COLLEGE OF MEDICINE, priority 2004, published 2006).

For assay [1], the target named is T1, Y1068 non-phosphorylated dodecapeptide (EGFR).
T1 sequence (peptide, N-terminal biotin (d-Biotin-LC)): LPVPEYINQSVP
In words: peptide pull-down: biotinylated peptide on NeutrAvidin agarose, purified His-tagged Stat3 protein added, bound protein immunoblotted with Stat3 mAb. A general note: In western blotting, separated proteins are transferred to a membrane and probed.

Assay [2] shares this target. In words: mirror resonance biosensor: biotinylated peptide on NeutrAvidin-coated cuvette, Stat3 protein in solution, association followed for about 10 min.

As to “Stat3-3M+C687A (from UniProt P40763 1-770)”, the binding result in assay [1] is recorded as “binds”.

As for “Stat3-3M+K591L (from UniProt P40763 1-770)”, the binding entry in assay [2] is “no binding (tested: 600 nM)”.
